This is an account of results in publication PMC5525311.

The chains behind the UniProt entries cited, without tags or fusion partners. Where a name states a change or a piece, a line headed by the entry shows the natural chain unless it says otherwise.
UniProt Q9NRP4: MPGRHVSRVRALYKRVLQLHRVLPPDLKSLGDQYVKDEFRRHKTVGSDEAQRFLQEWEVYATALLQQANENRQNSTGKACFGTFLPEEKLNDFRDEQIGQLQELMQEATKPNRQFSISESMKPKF

Results are given in words; binding and its absence hold for the method and conditions named. In cells and extracts the contact can be indirect. Binding can be weak; no strength is given. Tags and fused reporters may be left off the sequences shown.

B1: Sdh2-His6Myc2 (protein, UniProt P21801 21-266)
chain: TATTAAATHTPRLKTFKVYRWNPDEPSAKPHLQSYQVDLNDCGPMVLDALLKIKDEQDSTLTFRRSCREGICGSCAMNIGGRNTLACICKIDQNESKQLKIYPLPHMFIVKDLVPDLTNFYQQYKSIQPYLQRSSFPKDGTEVLQSIEDRKKLDGLYECILCACCSTSCPSYWWNQEQYLGPAVLMQAYRWLIDSRDQATKTRKAMLNNSMSLYRCHTIMNCTRTCPKGLNPGLAIAEIKKSLAFA
B2: SDHB p.Ala43Pro, GFP-tagged (protein, UniProt P21912 29-280)
chain: AQTAAATAPRIKKFPIYRWDPDKAGDKPHMQTYEVDLNKCGPMVLDALIKIKNEVDSTLTFRRSCREGICGSCAMNINGGNTLACTRRIDTNLNKVSKIYPLPHMYVIKDLVPDLSNFYAQYKSIEPYLKKKDESQEGKQQYLQSIEEREKLDGLYECILCACCSTSCPSYWWNGDKYLGPAVLMQAYRWMIDSRDDFTEERLAKLQDPFSLYRCHTIMNCTRTCPKGLNPGKAIAEIKKMMATYKEKKASV
B3: SDHB (succinate dehydrogenase subunit B), wild type, GFP-tagged (protein, UniProt P21912 29-280)
chain: AQTAAATAPRIKKFAIYRWDPDKAGDKPHMQTYEVDLNKCGPMVLDALIKIKNEVDSTLTFRRSCREGICGSCAMNINGGNTLACTRRIDTNLNKVSKIYPLPHMYVIKDLVPDLSNFYAQYKSIEPYLKKKDESQEGKQQYLQSIEEREKLDGLYECILCACCSTSCPSYWWNGDKYLGPAVLMQAYRWMIDSRDDFTEERLAKLQDPFSLYRCHTIMNCTRTCPKGLNPGKAIAEIKKMMATYKEKKASV
B4: SDHB p.Arg46Gln, GFP-tagged (protein, UniProt P21912 29-280)
chain: AQTAAATAPRIKKFAIYQWDPDKAGDKPHMQTYEVDLNKCGPMVLDALIKIKNEVDSTLTFRRSCREGICGSCAMNINGGNTLACTRRIDTNLNKVSKIYPLPHMYVIKDLVPDLSNFYAQYKSIEPYLKKKDESQEGKQQYLQSIEEREKLDGLYECILCACCSTSCPSYWWNGDKYLGPAVLMQAYRWMIDSRDDFTEERLAKLQDPFSLYRCHTIMNCTRTCPKGLNPGKAIAEIKKMMATYKEKKASV
B5: SDHB p.Cys101Tyr, GFP-tagged (protein, UniProt P21912 29-280)
chain: AQTAAATAPRIKKFAIYRWDPDKAGDKPHMQTYEVDLNKCGPMVLDALIKIKNEVDSTLTFRRSCREGICGSYAMNINGGNTLACTRRIDTNLNKVSKIYPLPHMYVIKDLVPDLSNFYAQYKSIEPYLKKKDESQEGKQQYLQSIEEREKLDGLYECILCACCSTSCPSYWWNGDKYLGPAVLMQAYRWMIDSRDDFTEERLAKLQDPFSLYRCHTIMNCTRTCPKGLNPGKAIAEIKKMMATYKEKKASV
B6: SDHB p.Ile127Ser, GFP-tagged (protein, UniProt P21912 29-280)
chain: AQTAAATAPRIKKFAIYRWDPDKAGDKPHMQTYEVDLNKCGPMVLDALIKIKNEVDSTLTFRRSCREGICGSCAMNINGGNTLACTRRIDTNLNKVSKSYPLPHMYVIKDLVPDLSNFYAQYKSIEPYLKKKDESQEGKQQYLQSIEEREKLDGLYECILCACCSTSCPSYWWNGDKYLGPAVLMQAYRWMIDSRDDFTEERLAKLQDPFSLYRCHTIMNCTRTCPKGLNPGKAIAEIKKMMATYKEKKASV
B7: SDHB p.Arg46Gly, GFP-tagged (protein, UniProt P21912 29-280)
chain: AQTAAATAPRIKKFAIYGWDPDKAGDKPHMQTYEVDLNKCGPMVLDALIKIKNEVDSTLTFRRSCREGICGSCAMNINGGNTLACTRRIDTNLNKVSKIYPLPHMYVIKDLVPDLSNFYAQYKSIEPYLKKKDESQEGKQQYLQSIEEREKLDGLYECILCACCSTSCPSYWWNGDKYLGPAVLMQAYRWMIDSRDDFTEERLAKLQDPFSLYRCHTIMNCTRTCPKGLNPGKAIAEIKKMMATYKEKKASV
B8: SDHB p.Pro197Arg, GFP-tagged (protein, UniProt P21912 29-280)
chain: AQTAAATAPRIKKFAIYRWDPDKAGDKPHMQTYEVDLNKCGPMVLDALIKIKNEVDSTLTFRRSCREGICGSCAMNINGGNTLACTRRIDTNLNKVSKIYPLPHMYVIKDLVPDLSNFYAQYKSIEPYLKKKDESQEGKQQYLQSIEEREKLDGLYECILCACCSTSCRSYWWNGDKYLGPAVLMQAYRWMIDSRDDFTEERLAKLQDPFSLYRCHTIMNCTRTCPKGLNPGKAIAEIKKMMATYKEKKASV
B9: SDHB p.Arg242His, GFP-tagged (protein, UniProt P21912 29-280)
chain: AQTAAATAPRIKKFAIYRWDPDKAGDKPHMQTYEVDLNKCGPMVLDALIKIKNEVDSTLTFRRSCREGICGSCAMNINGGNTLACTRRIDTNLNKVSKIYPLPHMYVIKDLVPDLSNFYAQYKSIEPYLKKKDESQEGKQQYLQSIEEREKLDGLYECILCACCSTSCPSYWWNGDKYLGPAVLMQAYRWMIDSRDDFTEERLAKLQDPFSLYHCHTIMNCTRTCPKGLNPGKAIAEIKKMMATYKEKKASV

One test addresses SDHAF3 p.Phe53Leu expressed in yeast (human) (UniProt Q9NRP4). The test can be described thus: co-IP; yeast mitochondria solubilised in 1% digitonin, 10 mM Tris-HCl pH 7.4, 150 mM NaCl, 1 mM EDTA; anti-SDHAF3 antibody 16 h at 4 °C, protein A magnetic beads; immunoblot; anti-HA antibody as negative control. (In general: Immunoblotting shows a protein as a band on a membrane.)
For B1, the binding result was “binds”.

The next test deals with SDHAF3 p.Phe53Leu (c.157 T > C), Myc-DDK-tagged (human) (UniProt Q9NRP4). Nature of the test: co-IP; HEK293 co-transfected for 24 h with DDK-tagged SDHAF3 and GFP-tagged SDHB; anti-DDK on Dynabeads M-280 sheep anti-mouse IgG, overnight at 4 °C; washes in Co-IP buffer with 500 mM NaCl, 0.1% Triton X100; immunoblot for GFP and DDK; mouse IgG as negative control.
Take B2: the binding result is reported as “binds”.

B3: the binding entry is on record as “binds”.

In the case of B4, the binding entry is on record as “no binding”.

As to B5, the binding result is listed as “binds”.

B6: the binding entry was “binds”.

Take B7: the binding entry is given as “no binding”.

For B8, the binding entry is listed as “binds”.

For B9, the binding result is “no binding”.
